Laboratory results taken from PubChem BioAssay AID588499 (NMMLSC, 2011).
Screen size: about 360,000 compounds; about 610 (0.17%) were called active. Inconclusive means that the source gave no clear call. Such entries were picked first, then a sample of the others. Cut-off read from the data, not from the text of the source: active = inhibition above about 30%; inconclusive = no clear call, values can overlap the other calls; inactive = below that.

tested on: Botulinum neurotoxin type A light chain protease (Clostridium botulinum A str. ATCC 3502); experiment: blockers of BoNT/A LC substrate cleavage – biochemical, flow cytometry, MLPCN library, primary screen (AID 588499); details: multiplex microsphere protease substrate cleavage, at 10 µM, active compounds read high; note: plate controls were buffer without enzyme for full effect and enzyme alone for no effect

| SMILES | inhibition |
| --- | --- |
| COc1ccc(C2Nc3ccccc3NC3=C2C(=O)CC(C)(C)C3)cc1OC (stereo not drawn) | inactive: 0.6% |
| COc1ccc(CCNC(=O)C(NC(=O)OCc2ccccc2)C(C)C)cc1OC (stereo not drawn) | inconclusive: -4.4% |
| O=C(Nc1ccccn1)c1ccc(C(=O)Nc2ccccn2)cc1 | inconclusive: -6.5% |
| CCC1(c2ccc(Cl)cc2)NC(=O)N(CC(=O)NC2CCCC(C)C2C)C1=O (stereo not drawn) | inactive: 0.1% |
| CN(Cc1ccccn1)C(=O)C1CCC(=O)N(CCc2ccc(Cl)cc2)C1 (stereo not drawn) | inactive: -3.1% |
| CN(CC(=O)N1CCCc2c1c(=O)oc1ccc(O)cc21)Cc1ccccc1 | inactive: -3.9% |
| CCn1c(=O)cc(SCC(=O)NCCCN2CCN(c3ccc(F)cc3)CC2)c2ccccc21 | inactive: 2.2% |
| CCc1nc(SCc2cc(=O)[nH]c3ccccc23)c2c(C)c(C)sc2n1 | inactive: -0.7% |
| Cc1cccc(NC(=O)NCc2ccc3c(c2)cc(C)n3C)c1 | active: 58.5% |
| Cc1cc(C)cc(C(=O)N2CC(C)OC(C)C2)c1 (stereo not drawn) | inconclusive: -0.9% |
| CC(C)C[C@@H]1O[C@H](CCc2ccccc2)Cc2[nH]c(=S)[nH]c(=O)c21 | inactive: 0.4% |
| O=C(NC(=O)c1c(F)cccc1F)O/N=C1\CCCc2occc21 | inconclusive: -15.9% |
| O=C(CC(=O)c1ccccc1)Nc1cc([N+](=O)[O-])ccc1Cl | inconclusive: -1.9% |
| Cc1ccc(C(=O)Nc2cccnc2)cc1Cl | inactive: 0.5% |
| COC(=O)c1ccccc1NC(=O)Cn1cnc([N+](=O)[O-])c1 | inconclusive: -0.7% |
| CC(=NNC(=S)Nc1ccc(C)cc1)c1ccccn1 | inactive: 2.8% |
| Cc1ccc(C)c(NC(=O)C2CCCC2)c1 | inactive: -1.2% |
| N#Cc1c(N)sc2c1CCN(CCc1ccccc1)C2 | active: 64.8% |
| COc1ccc(NC(=O)CSCC(=O)N2CCN(C(=O)c3ccco3)CC2)cc1 | inactive: 0.1% |
| Cc1ccc2c(c1)c(CC(=O)Nc1ccc(F)cc1)c(C(=O)O)n2C | inconclusive: -1.3% |

| SMILES | inhibition |
| --- | --- |
| COC(=O)COc1ccc2c(=O)c(-c3ccccc3)coc2c1 | inconclusive: -4.1% |
| CC(=NCCN1CCOCC1)C1=C(O)c2ccccc2C1=O | inactive: 0% |
| COc1ccc(C(C)NC(=O)C2CCCO2)cc1OC (stereo not drawn) | inconclusive: 3.2% |
| Cc1cc(C(F)(F)F)nn1CCCNC(=O)c1cnccn1 | inconclusive: 1.8% |
| CCCN1CNC(=S)N(c2cccc(C)c2C)C1 | inconclusive: 29.7% |
| COc1ccc(C(=O)Nc2cccc(C(=O)NCc3ccco3)c2)cc1 | inactive: 0% |
| Cc1ccc(C(=O)NN2CCOCC2)cc1 | inconclusive: 2.1% |
| O=C(O)Cc1ccc(C(=O)CSc2ccccc2)s1 | inconclusive: 18.1% |
| COc1cc(/C=C2/N=C(C3CCCCC3)OC2=O)cc(OC)c1OC | inconclusive: 2.5% |
| CCCCC#Cc1cncc(C(=O)NN)c1 | inconclusive: 5.7% |
| CCOC(=O)[C@H]1[C@H]2COc3ccccc3[C@@H]2N2C(=O)CN(CC3CCCO3)C(=O)[C@@]12C (stereo partly drawn) | inactive: -0.2% |
| O=C(C1=C(O)C(=O)N(CCN2CCOCC2)C1c1cccc(Br)c1)c1cc2ccccc2o1 (stereo not drawn) | inactive: 0.4% |
| Cn1c2c(c(=O)n(C)c1=O)C(c1cccc(F)c1)C(C#N)=C(N)O2 (stereo not drawn) | inconclusive: 5.1% |
| CC1=C(C(=O)Nc2ccccc2)S(=O)(=O)CCO1 | inconclusive: -0.8% |
| O=C(CN1C(=O)COc2ccccc21)N(Cc1ccccc1)Cc1ccccn1 | inconclusive: 2.1% |
| CCOc1ccc(-n2ccnc(SCC(=O)Nc3cccc(OC)c3)c2=O)cc1 | inconclusive: -10% |
| O=C(Nc1ccccc1F)c1ccc2nc(N3C(=O)CCC3=O)sc2c1 | inconclusive: -9.9% |
| CC1CC(C)(C)N2C(=O)C3(Nc4ccccc4S3)c3cccc1c32 (stereo not drawn) | inconclusive: 0.2% |
| O/C(=C\c1nc2ccccc2nc1/C=C(\O)c1ccccc1)c1ccccc1 | active: 66.8% |
| CCOC(=O)c1ccc(S(=O)(=O)Nc2cc(S(=O)(=O)Nc3ccc(OC)cc3)ccc2O)cc1 | inactive: 0.2% |

| SMILES | inhibition |
| --- | --- |
| CCOC(=O)C1c2cccc(O)c2CCN1C(C)=O (stereo not drawn) | inactive: 0.2% |
| CC(CNC(=O)COC(=O)c1cccs1)c1ccccc1 (stereo not drawn) | inactive: -0.1% |
| COc1ccc(CCC(=O)N/N=C/c2ccc3c(c2)OCO3)cc1 | inconclusive: -5.7% |
| Cc1ccc(S(=O)(=O)Nc2nc3ccccc3nc2N2CCN(c3ccccc3F)CC2)cc1 | inactive: -0.1% |
| Cc1cc(NC(=O)CSc2nc3ccccc3n2CC(=O)N2CC(C)CC(C)C2)no1 (stereo not drawn) | inconclusive: -2.1% |
| CN(CC(=O)Nc1ccccc1Br)C(=O)c1cccc(S(=O)(=O)NCc2ccccc2)c1 | inactive: 1.9% |
| COc1ccc(S(=O)(=O)N2CCOC2CNC(=O)C(=O)NCCN2CCOCC2)cc1 (stereo not drawn) | inconclusive: 1% |
| COc1ccccc1CCC(=O)OCC(=O)Nc1c(C)nn(-c2ccccc2)c1C | inactive: 3.3% |
| CCCCN(C(=O)c1ccc([N+](=O)[O-])s1)c1c(N)n(CC(C)C)c(=O)[nH]c1=O | inconclusive: -1.5% |
| Cc1ccc2oc3nc(C)c(C(=O)Nc4cccc(C(F)(F)F)c4)cc3c(=O)c2c1 | inconclusive: -1% |
| O=C(CCN=C1NS(=O)(=O)c2ccccc21)OCc1ccccc1 | inconclusive: 7.4% |
| Cc1cc(C)c(OCC(=O)OCC(=O)NC2CCC(C)CC2)c(C)c1 (stereo not drawn) | inconclusive: 3.9% |
| CC(OC(=O)CCC(=O)c1ccccc1)C(=O)Nc1ccc(F)cc1 (stereo not drawn) | inconclusive: -3.5% |
| O=C(NCC(=O)N(c1ccccc1F)C(C(=O)NC1CCCC1)c1ccncc1)c1ccco1 (stereo not drawn) | inactive: -0.9% |
| Cc1nnc(NS(=O)(=O)c2ccc(Br)cc2)s1 | inconclusive: -4.5% |
| CCCNC(=O)COC(=O)c1[nH]c(C)c(C(=O)OCC)c1C | inactive: -0.5% |
| CCN1/C(=N\N)c2cccc3cccc1c23 | active: 39.3% |
| C#CCOCCOCCOCCNc1nc(N2CCN(C(=O)[C@H]([C@@H](C)CC)n3cc([C@@H](N)CC(C)C)nn3)CC2)nc(N2CCN(C(=O)[C@H]([C@@H](C)CC)n3cc([C@@H](N)CC(C)C)nn3)CC2)n1 | inactive: -0.4% |

Part of the list above, with tabs:
SMILES	inhibition
CC(CNC(=O)COC(=O)c1cccs1)c1ccccc1 (stereo not drawn)	inactive: -0.1%
COc1ccc(CCC(=O)N/N=C/c2ccc3c(c2)OCO3)cc1	inconclusive: -5.7%
Cc1ccc(S(=O)(=O)Nc2nc3ccccc3nc2N2CCN(c3ccccc3F)CC2)cc1	inactive: -0.1%
Cc1cc(NC(=O)CSc2nc3ccccc3n2CC(=O)N2CC(C)CC(C)C2)no1 (stereo not drawn)	inconclusive: -2.1%
